Patent US9249466B2, “Methods and compositions for treating cancer” (Agency for Science, Technology and Research, priority 2010, dated 2016)
At least one structure is not confirmed: it was looked up by name or label, or the drawing left a doubt.

How the values were obtained:
DLD1-PPP2R2B cells = experiment: Xenograft tumor growth of DLD1-PPP2R2B cells in nude mice; format: in vivo, BALB/c nude mice
Description: The female athymice BALB/c nude mice (5-8 week-old) were housed in the Biological Resource Centre. Mice were implanted subcutaneously in both sides of flank with 3×10^6 DLD1-PPP2R2B or control DLD1 cells, respectively.
When tumors reached ˜70 mm^3, the mice were divided two groups (6 mice per group) and the Doxycyclin was administrated by oral gavages at 100 mg/kg daily. Tumor progress was monitored with whole body weight and tumor size for every other day. For combination treatment with rapamycin and doxycycline, the same dose of doxycyclin was given at every other day and rapamycin was administered by intraperitoneal injection at 4 mg/kg at Day 3, 5, 7 and 11.
Tumor diameters were measured every 3-4 days with caliper and tumor volumes were calculated from 7-9 mice per data time point. All animal work was performed in accordance with animal experiments guidelines of Singapore.

control DLD1 cells = experiment: Xenograft tumor growth of control DLD1 cells in nude mice; format: in vivo, BALB/c nude mice; conditions: DLD1 cells expressing control vector; Dox 100 mg/kg daily

C[C@H]1c2cccc(O)c2C(=O)C2=C(O)[C@]3(O)C(=O)C(C(N)=O)=C(O)[C@@H](N(C)C)[C@@H]3[C@@H](O)[C@@H]21 [Dox]
xenograft tumor growth with daily Dox (DLD1-PPP2R2B cells; Dox 100 mg/kg daily oral gavage, three weeks): markedly inhibited | xenograft tumor growth, single treatment (DLD1-PPP2R2B cells; rapamycin 4 mg/kg i.p. or Dox 100 mg/kg oral alone, every other day): moderately attenuated | xenograft tumor growth with daily Dox (control DLD1 cells): unaffected
